Experimental data reported in article PMC7862700.
The list shows a part of the results, in another mix than the full data. At the low end of the ranking the order means little.

Chains of the proteins cited; added tags and fusions are not shown. Lines headed by an entry give the natural chain unless they say otherwise; changes in a name come on top.
UniProt P41161: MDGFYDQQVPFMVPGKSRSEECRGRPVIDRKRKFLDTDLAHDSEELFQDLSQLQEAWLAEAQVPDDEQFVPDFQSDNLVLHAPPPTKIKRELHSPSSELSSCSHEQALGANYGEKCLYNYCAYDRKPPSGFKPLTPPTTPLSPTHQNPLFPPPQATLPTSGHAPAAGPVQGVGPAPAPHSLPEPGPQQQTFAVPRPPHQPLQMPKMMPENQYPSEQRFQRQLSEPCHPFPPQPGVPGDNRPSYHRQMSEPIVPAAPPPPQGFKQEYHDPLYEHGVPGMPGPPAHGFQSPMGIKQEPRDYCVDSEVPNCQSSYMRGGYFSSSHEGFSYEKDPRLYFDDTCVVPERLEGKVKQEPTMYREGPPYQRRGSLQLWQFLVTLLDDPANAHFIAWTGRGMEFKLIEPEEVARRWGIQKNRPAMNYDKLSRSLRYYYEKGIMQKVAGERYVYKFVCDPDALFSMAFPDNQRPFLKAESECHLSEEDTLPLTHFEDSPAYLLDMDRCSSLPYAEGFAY

Target: ETV5 (UniProt P41161)
Assay: DAPPL (digital affinity profiling via proximity ligation, sequencing)
Conditions: 10 mM Tris-HCl pH 7.5, 50 mM NaCl, 1 mM DTT, 4% glycerol, room temperature, 30 min; GST-TFs on glutathione beads, 16-mer random dsDNA library, 0.1% …; high values mean tight binding; double strand, one strand shown; scale: fold enrichment (6-mer frequency, TF over GST control)

Sequence	binding signal
CCTTAG	1.18
TGCCAT	1.03
TACCGG	1.68
AATCAC	1.14
TTCGCT	1.24
ACACCC	1.08
TGAATA	1.13
TCCACG	1.04
CTTAGC	1.18
TGGCAT	1.13
GGAAAT	3.05
TCTTTT	1.4
ATCGAC	1.25
AATATC	1.53
GCTCTC	1.28
TATCAC	1.24
ACAGCC	0.998
TATTTA	1.47
ACGCAC	1.09
CTACCT	1.36

Another view of part of the listing above:
Sequence,binding signal
TACCGG,1.68
AATCAC,1.14

Continued.

Sequence	binding signal
TCACTG	1.15
ACTGCA	1.2
GCTCAT	1.19
CATTCT	1.28
CCTTAC	1.36
CCCCAA	1.12
CTCCCT	1.73
ATGATG	1.33
GTTGCT	1.28
CCACCC	1.25
ATTAAA	1.2
TATATC	1.6
AAATGC	1.34
ACTCAT	1.32
CTAACC	1.19
CCACTG	1.15
CTGCTC	1.26
ACCCCT	0.972
CTCTCG	1.32
